The text below walks through data of article PMC8864077.

No constants are given. Whether binding was seen depends on the method and setting. In cells and extracts the contact can be indirect. Some entries that bind do so weakly or less than the wild type.

The target of experiment [1] is T1, apoptosis-associated speck-like protein containing a caspase recruitment domain (ASC) (mouse (endogenous in brain cortex of C57BL/6 mice)) (UniProt Q9EPB4).
T1 sequence: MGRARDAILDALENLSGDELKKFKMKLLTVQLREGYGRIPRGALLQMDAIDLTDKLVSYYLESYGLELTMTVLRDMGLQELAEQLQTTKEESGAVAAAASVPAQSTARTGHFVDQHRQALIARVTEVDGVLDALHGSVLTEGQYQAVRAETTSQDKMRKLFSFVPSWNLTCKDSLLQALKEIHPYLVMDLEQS
Nature of the experiment: co-IP; 2 ug anti-ASC antibody added to 100 uL brain cortical lysate of young and aged mice, Protein G MicroBeads, u Column, rinsed with lysis buffer and RIPA buffer, eluted with hot Laemmli buffer, immunoblot. (In general: Immunoblotting shows a protein as a band on a membrane.)

Experiment [2] has as its target T2, apoptosis-associated speck-like protein containing a caspase recruitment domain (ASC) (mouse (endogenous in brain cortex of C57BL/6 mice)), Q9EPB4.
T2 chain: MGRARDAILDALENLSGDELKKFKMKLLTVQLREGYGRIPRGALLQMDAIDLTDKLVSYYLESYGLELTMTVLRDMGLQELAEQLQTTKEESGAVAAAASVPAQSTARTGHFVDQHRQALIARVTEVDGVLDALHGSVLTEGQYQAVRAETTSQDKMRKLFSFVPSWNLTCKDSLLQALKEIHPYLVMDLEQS
The experiment is described as above. The settings on record: remark: other sources report otherwise.

B1: caspase-1 (protein, UniProt P29452 1-402)
chain: MADKILRAKRKQFINSVSIGTINGLLDELLEKRVLNQEEMDKIKLANITAMDKARDLCDHVSKKGPQASQIFITYICNEDCYLAGILELQSAPSAETFVATEDSKGGHPSSSETKEEQNKEDGTFPGLTGTLKFCPLEKAQKLWKENPSEIYPIMNTTTRTRLALIICNTEFQHLSPRVGAQVDLREMKLLLEDLGYTVKVKENLTALEMVKEVKEFAACPEHKTSDSTFLVFMSHGIQEGICGTTYSNEVSDILKVDTIFQMMNTLKCPSLKDKPKVIIIQACRGEKQGVVLLKDSVRDSEEDFLTDAIFEDDGIKKAHIEKDFIAFCSSTPDNVSWRHPVRGSLFIESLIKHMKEYAWSCDLEDIFRKVRFSFEQPEFRLQMPTADRVTLTKRFYLFPGH
Consider B1, for which the binding result in experiment [1] is recorded as “binds”.

B2: caspase-8, O89110 1-480 (protein)
chain: MDFQSCLYAIAEELGSEDLAALKFLCLDYIPHKKQETIEDAQKLFLRLREKGMLEEGNLSFLKELLFHISRWDLLVNFLDCNREEMVRELRDPDNAQISPYRVMLFKLSEEVSELELRSFKFLLNNEIPKCKLEDDLSLLEIFVEMEKRTMLAENNLETLKSICDQVNKSLLGKIEDYERSSTERRMSLEGREELPPSVLDEMSLKMAELCDSPREQDSESRTSDKVYQMKNKPRGYCLIINNHDFSKAREDITQLRKMKDRKGTDCDKEALSKTFKELHFEIVSYDDCTANEIHEILEGYQSADHKNKDCFICCILSHGDKGVVYGTDGKEASIYDLTSYFTGSKCPSLSGKPKIFFIQACQGSNFQKGVPDEAGFEQQNHTLEVDSSSHKNYIPDEADFLLGMATVKNCVSYRDPVNGTWYIQSLCQSLRERCPQGDDILSILTGVNYDVSNKDDRRNKGKQMPQPTFTLRKKLFFPP
With B2, the binding entry in experiment [2] is recorded as “binds”.
